Measured values: the supplement of paper PMC12067093, “Discovery and optimisation of a covalent ligand for TRIM25 and its application to targeted protein ubiquitination” (Chemical Science, 2025)
This is one part of the list.

These targets were tested with Cc1cc(ccc1-c1ccccc1)C(=O)N1CCCN(CC1)C(=O)CCl [compound 10] (assay: probe-labelled cysteine peptide fold change vs DMSO (competition) (log2 fold change); higher = less target engagement (more negative = stronger competition)). Settings: 10 µM; THP-1; incubation time: 4 h.
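Also: competitive profiling in live THP-1 cells: cysteine peptides tagged with an iodoacetamide desthiobiotin (IA-DTB) probe, intensity after compound treatment relative to DMSO-treated cells.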

Target	probe-labelled cysteine peptide fold change
BIRC6_Q9NR09_1183_LCPFLEDHKEDILCGPVWLASGLDLSGHAGMLTLTSPK (UniProt Q9NR09)	0.109
BAZ2A_Q9UIF9_1697_GDNDEFLLLCDGCDR (UniProt Q9UIF9)	0.096
BAZ1B_Q9UIG0_1213_AFHLFCLR (UniProt Q9UIG0)	-0.0183
BAZ1B_Q9UIG0_1228+1231_AFHLFCLRPALYEVPDGEWQCPACQPATAR (UniProt Q9UIG0)	0.0986
BAHD1_Q8TBE0_764_TVPEDTDPELVFLCR (UniProt Q8TBE0)	-0.118
BDH2_Q9BUT1_93_LDVLFNVAGFVHHGTVLDCEEK (UniProt Q9BUT1)	-0.102
BIRC6_Q9NR09_355_HSPNCPFVK (UniProt Q9NR09)	0.0596
BAZ1B_Q9UIG0_1096_DFGECVIALQASVIK (UniProt Q9UIG0)	0.0267
BPTF_Q12830_1357_LASADDIGTLICK (UniProt Q12830)	-0.334
BOP1_Q14137_373_CLDLYLCPR (UniProt Q14137)	-0.132
BAZ1A_Q9NRL2_970_SSNAYDPSQMCAEK (UniProt Q9NRL2)	-0.0997
BMP2K_Q9NSY1_912_KVNVQECHAVGPEAHTIPGYPK (UniProt Q9NSY1)	-0.364
BAZ1A_Q9NRL2_1177_GHHTYCVRPK (UniProt Q9NRL2)	0.167
BDP1_A6H8Y1_2039_IVHECQELSSPVITTSPASFEENK (UniProt A6H8Y1)	-0.401
BMI1_P35226_166_CPAAMTVMHLR (UniProt P35226)	-0.0668
AZU1_P20160_207_RGGICNGDGGTPLVCEGLAHGVASFSLGPCGR (UniProt P20160)	0.168
AURKA_O14965_33_RVLVTQQFPCQNPLPVNSGQAQR (UniProt O14965)	-0.134
BAZ1A_Q9NRL2_404_PREDMECDDLK (UniProt Q9NRL2)	-0.207
BIRC6_Q9NR09_2910_AVCGEMTR (UniProt Q9NR09)	0.172

Some values from the list:
BAZ1A_Q9NRL2_970_SSNAYDPSQMCAEK (UniProt Q9NRL2) | probe-labelled cysteine peptide fold change: -0.0997
AURKA_O14965_33_RVLVTQQFPCQNPLPVNSGQAQR (UniProt O14965) | probe-labelled cysteine peptide fold change: -0.134

The list goes on:

Target	probe-labelled cysteine peptide fold change
BAG5_Q9UL15_157+166_ICAVQEIIEDCMK (UniProt Q9UL15)	0.189
BOD1L1_Q8NFC6_1618_EGESGECAVAESEDR (UniProt Q8NFC6)	-0.29
BOP1_Q14137_620_LMPNCK (UniProt Q14137)	0.00926
BOP1_Q14137_108_KTTEEQVQASTPCPR (UniProt Q14137)	-0.0259
ATXN2_Q99700_556_VVNGGVPWPSPCPSPSSRPPSR (UniProt Q99700)	-0.149
BCAP29_Q9UHQ4_171_DEECVLEAENK (UniProt Q9UHQ4)	-0.0125
BABAM2_Q9NXR7_34_VGLDATNCLR (UniProt Q9NXR7)	-0.0698
BCAT1_P54687_338_EMFGSGTACVVCPVSDILYK (UniProt P54687)	0.114
BABAM1_Q9NWV8_222_TILVYSRPPCQPQFSLTEPMK (UniProt Q9NWV8)	0.0416
B4GAT1_O43505_146_EEAQLATVLAYALSSHCPDMR (UniProt O43505+B4GAT1)	0.0128
BCKDHB_P21953_207_SPWGCVGHGALYHSQSPEAFFAHCPGIK (UniProt P21953)	-0.0739
BAZ1B_Q9UIG0_1006_ELDELLNCLHPQGIR (UniProt Q9UIG0)	0.082
BAZ1B_Q9UIG0_1393+1395_CSCGSYR (UniProt Q9UIG0)	0.00371
BOD1L1_Q8NFC6_1554_QSEVALPCTSIEADEGLIIGTHSR (UniProt Q8NFC6)	-0.156
BAZ2B_Q9UIF8_1960_GCHTYCHRPK (UniProt Q9UIF8)	0.0435
BHLHE22_Q8NFJ8_156_GSVAESSGGEQSPDDDSDGRCELVLR (UniProt Q8NFJ8)	-0.393
BANF1_O75531_67_DTCGANAK (UniProt O75531)	0.317
BAZ1A_Q9NRL2_586_RGGFDATDDACMELR (UniProt Q9NRL2)	-0.0388
BCR_P11274_395_HCPVVVSEATIVGVR (UniProt P11274)	-0.078
